Measurements from paper PMC12240075.
No constants are given. Whether binding was seen depends on the method and setting. In cells and extracts the contact can be indirect. Some binding calls cover weakened binding; strength is not graded here. Tags and fused reporters may be left off the sequences shown.

Chains of the proteins cited; added tags and fusions are not shown.
UniProt P11142: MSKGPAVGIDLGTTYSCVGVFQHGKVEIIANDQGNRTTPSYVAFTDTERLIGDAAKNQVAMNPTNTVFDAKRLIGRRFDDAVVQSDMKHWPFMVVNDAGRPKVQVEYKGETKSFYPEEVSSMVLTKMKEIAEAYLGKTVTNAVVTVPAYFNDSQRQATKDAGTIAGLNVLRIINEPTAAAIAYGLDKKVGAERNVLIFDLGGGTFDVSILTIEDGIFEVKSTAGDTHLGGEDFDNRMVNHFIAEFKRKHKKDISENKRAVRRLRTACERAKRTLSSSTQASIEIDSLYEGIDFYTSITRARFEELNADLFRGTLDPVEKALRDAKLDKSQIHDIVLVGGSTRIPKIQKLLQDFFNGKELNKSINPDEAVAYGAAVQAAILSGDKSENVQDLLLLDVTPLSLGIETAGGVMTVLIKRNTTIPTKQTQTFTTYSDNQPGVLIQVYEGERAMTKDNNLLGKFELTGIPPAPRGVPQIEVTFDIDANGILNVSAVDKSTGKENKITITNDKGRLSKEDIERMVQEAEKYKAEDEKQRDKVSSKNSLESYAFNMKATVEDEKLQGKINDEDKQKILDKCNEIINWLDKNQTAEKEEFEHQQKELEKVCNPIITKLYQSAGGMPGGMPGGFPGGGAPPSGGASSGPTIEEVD

Target: GST-HSC70 (UniProt P11142)
Test: pull-down; recombinant GST fusion protein incubated with lysates of transfected cells, GST pull-down, immunoblot; in Fig. 3D also lysates of cells treated with 100 μM GA for 24 h; only the target purified

| binding | Binder |
| --- | --- |
| binds | HA-OGA-K358R (protein, UniProt O60502 1-916) MVQKESQATLEERESELSSNPAASAGASLEPPAAPAPGEDNPAGAGGAAVAGAAGGARRFLCGVVEGFYGRPWVMEQRKELFRRLQKWELNTYLYAPKDDYKHRMFWREMYSVEEAEQLMTLISAAREYEIEFIYAISPGLDITFSNPKEVSTLKRKLDQVSQFGCRSFALLFDDIDHNMCAADKEVFSSFAHAQVSITNEIYQYLGEPETFLFCPTEYCGTFCYPNVSQSPYLRTVGEKLLPGIEVLWTGPKVVSKEIPVESIEEVSKIIKRAPVIWDNIHANDYDQKRLFLGPYKGRSTELIPRLKGVLTNPNCEFEANYVAIHTLATWYKSNMNGVRKDVVMTDSEDSTVSIQIRLENEGSDEDIETDVLYSPQMALKLALTEWLQEFGVPHQYSSRQVAHSGAKASVVDGTPLVAAPSLNATTVVTTVYQEPIMSQGAALSGEPTTLTKEEEKKQPDEEPMDMVVEKQEETDHKNDNQILSEIVEAKMAEELKPMDTDKESIAESKSPEMSMQEDCISDIAPMQTDEQTNKEQFVPGPNEKPLYTAEPVTLEDLQLLADLFYLPYEHGPKGAQMLREFQWLRANSSVVSVNCKGKDSEKIEEWRSRAAKFEEMCGLVMGMFTRLSNCANRTILYDMYSYVWDIKSIMSMVKSFVQWLGCRSHSSAQFLIGDQEPWAFRGGLAGEFQRLLPIDGANDLFFQPPPLTPTSKVYTIRPYFPKDEASVYKICREMYDDGVGLPFQSQPDLIGDKLVGGLLSLSLDYCFVLEDEDGICGYALGTVDVTPFIKKCKISWIPFMQEKYTKPNGDKELSEAEKIMLSFHEEQEVLPETFLANFPSLIKMDIHKKVTDPSVAKSMMACLLSSLKANGSRGAFCEVRPDDKRILEFYSKLGCFEIAKMEGFPKDVVILGRSL |
| binds | HA-OGA-Q356A/E360A (protein, UniProt O60502 1-916) MVQKESQATLEERESELSSNPAASAGASLEPPAAPAPGEDNPAGAGGAAVAGAAGGARRFLCGVVEGFYGRPWVMEQRKELFRRLQKWELNTYLYAPKDDYKHRMFWREMYSVEEAEQLMTLISAAREYEIEFIYAISPGLDITFSNPKEVSTLKRKLDQVSQFGCRSFALLFDDIDHNMCAADKEVFSSFAHAQVSITNEIYQYLGEPETFLFCPTEYCGTFCYPNVSQSPYLRTVGEKLLPGIEVLWTGPKVVSKEIPVESIEEVSKIIKRAPVIWDNIHANDYDQKRLFLGPYKGRSTELIPRLKGVLTNPNCEFEANYVAIHTLATWYKSNMNGVRKDVVMTDSEDSTVSIAIKLANEGSDEDIETDVLYSPQMALKLALTEWLQEFGVPHQYSSRQVAHSGAKASVVDGTPLVAAPSLNATTVVTTVYQEPIMSQGAALSGEPTTLTKEEEKKQPDEEPMDMVVEKQEETDHKNDNQILSEIVEAKMAEELKPMDTDKESIAESKSPEMSMQEDCISDIAPMQTDEQTNKEQFVPGPNEKPLYTAEPVTLEDLQLLADLFYLPYEHGPKGAQMLREFQWLRANSSVVSVNCKGKDSEKIEEWRSRAAKFEEMCGLVMGMFTRLSNCANRTILYDMYSYVWDIKSIMSMVKSFVQWLGCRSHSSAQFLIGDQEPWAFRGGLAGEFQRLLPIDGANDLFFQPPPLTPTSKVYTIRPYFPKDEASVYKICREMYDDGVGLPFQSQPDLIGDKLVGGLLSLSLDYCFVLEDEDGICGYALGTVDVTPFIKKCKISWIPFMQEKYTKPNGDKELSEAEKIMLSFHEEQEVLPETFLANFPSLIKMDIHKKVTDPSVAKSMMACLLSSLKANGSRGAFCEVRPDDKRILEFYSKLGCFEIAKMEGFPKDVVILGRSL |
